PubChem BioAssay AID1259272 | Sanger Institute | 2017
The deposit covers 794 reagents; shown is a random part of them. Over the whole deposit, 7 (0.88%) are marked active. 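Essential calls reflect knock-down without drug only, not synergy with drugs; drug exposure length not given.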 Unmarked entries are inactive. Further read-outs or replicates are left out here. Not given: the amount of reagent, the time to read-out.

- Screen: 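Kinase knock-downs lethal to colorectal cancer cells, with or without anchor drugs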 (primary screen)
- System: SW1116 human colorectal cancer cells
- Reagent: siRNA pool against human genes
- Challenge: anchor drugs BYL719 (1 µM), cetuximab (5 µg/ml) or trametinib (10 nM), or DMSO vehicle; exposure length not given
- Measured: 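Replicate-averaged viability versus control-pool wells, with a robust z-score for siRNA alone and a per-drug synergy score (BYL719, cetuximab, trametinib)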
- Scale: viability z-score, no drug: higher = more cells remaining; strongly negative means essential gene
- Hit rule: 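Called essential if the drug-free knock-down gives a robust viability z-score below -3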
- Calls: active = essential (knock-down alone); inactive = no change

AURKB (aurora kinase B)
- viability z-score, no drug: -2.3

IGF2R (insulin like growth factor 2 receptor)
- viability z-score, no drug: 0.842

PIP4K2A (phosphatidylinositol-5-phosphate 4-kinase type 2 alpha)
- viability z-score, no drug: 0.842

TSSK6 (testis specific serine kinase 6)
- viability z-score, no drug: -0.575

SPHK1 (sphingosine kinase 1)
- viability z-score, no drug: 0.842

CLK2 (CDC like kinase 2)
- viability z-score, no drug: -0.281

RBKS (ribokinase)
- viability z-score, no drug: 0.842

GRK1 (G protein-coupled receptor kinase 1)
- viability z-score, no drug: 0.842

STK35 (serine/threonine kinase 35)
- viability z-score, no drug: -0.833

SRPK2 (SRSF protein kinase 2)
- viability z-score, no drug: -0.201

IRAK1 (interleukin 1 receptor associated kinase 1)
- viability z-score, no drug: 0.842

PIK3R3 (phosphoinositide-3-kinase regulatory subunit 3)
- viability z-score, no drug: 0.842

ITPK1 (inositol-tetrakisphosphate 1-kinase)
- viability z-score, no drug: 0.827

ACVR1B (activin A receptor type 1B)
- viability z-score, no drug: -0.179

CIT (citron rho-interacting serine/threonine kinase)
- viability z-score, no drug: -2.46

RPS6KB2 (ribosomal protein S6 kinase B2)
- viability z-score, no drug: 0.134

PIK3CB
- viability z-score, no drug: 0.268

PRKG1 (protein kinase cGMP-dependent 1)
- viability z-score, no drug: 0.274

DYRK4 (dual specificity tyrosine phosphorylation regulated kinase 4)
- viability z-score, no drug: -0.0074

HUNK (hormonally up-regulated Neu-associated kinase)
- viability z-score, no drug: -1.52

PFKL (phosphofructokinase, liver type)
- viability z-score, no drug: 0.842

KHK (ketohexokinase)
- viability z-score, no drug: 0.842

CDK3 (cyclin dependent kinase 3)
- viability z-score, no drug: 0.842

MAP4K5 (mitogen-activated protein kinase kinase kinase kinase 5)
- viability z-score, no drug: -1.96

FGFRL1 (fibroblast growth factor receptor like 1)
- viability z-score, no drug: 0.842

CHEK1 (checkpoint kinase 1)
- viability z-score, no drug: -2.32

MAGI3
- viability z-score, no drug: 0.842

EIF2AK4 (eukaryotic translation initiation factor 2 alpha kinase 4)
- viability z-score, no drug: 0.842

Reformatted: 5 of the entries above.
{"target":"RBKS (ribokinase)","viability z-score, no drug":0.842}
{"target":"GRK1 (G protein-coupled receptor kinase 1)","viability z-score, no drug":0.842}
{"target":"STK35 (serine/threonine kinase 35)","viability z-score, no drug":-0.833}
{"target":"SRPK2 (SRSF protein kinase 2)","viability z-score, no drug":-0.201}
{"target":"IRAK1 (interleukin 1 receptor associated kinase 1)","viability z-score, no drug":0.842}
